PubChem BioAssay AID1224828, NIAID, 2016

Aim: 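Regulators linking TLR4 signalling to p65 nuclear translocation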 (primary screen)
Cell system: mouse RAW264.7 G9 macrophage reporter cells (GFP-p65, Tnf promoter-mCherry)
Reagent: siRNA pool against mouse genes, 100 nM
Timing: 2 days siRNA transfection, then 40 min LPS before fixation
Challenge: LPS (Salmonella minnesota R595) at 10 ng/ml
Read-out: 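Imaged p65 nuclear translocation ratio, normalised to the plate median, converted to robust z-scores and averaged across two replicates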
Direction: p65 translocation robust z-score: higher = more nuclear NF-kappaB p65 after LPS than the plate median; nuclear/cytoplasmic p65 ratio: higher = more nuclear NF-kappaB p65
Rule for the call: 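Called active when z exceeds 3.3 or falls under -1.56 (median of Tlr4 controls), giving activity score of at least 50; no calls for control wells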
Calls: active = hit (p65 shift raised or lowered); inactive = no clear change
This is one part, drawn at random, of about 17,000 deposited reagents. 762 of all reagents (4.5%) count as active. 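Active calls include both raised and lowered p65 entry, mostly lowered; wells with fewer than 50 cells lack a z-score.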 Raw values vary from plate to plate and are shown uncorrected.

The first 2 records, ahead of the listing:
Ccn1: p65 translocation robust z-score = -0.4; nuclear/cytoplasmic p65 ratio, rep 1 = 1.4; nuclear/cytoplasmic p65 ratio, rep 2 = 1.35; low cell count flag = enough cells to score; activity call = inactive
Lpo: p65 translocation robust z-score = 1.61; nuclear/cytoplasmic p65 ratio, rep 1 = 1.94; nuclear/cytoplasmic p65 ratio, rep 2 = 1.81; low cell count flag = enough cells to score; activity call = inactive

The listing, repeating the preview:
Ccn1: p65 translocation robust z-score = -0.4; nuclear/cytoplasmic p65 ratio, rep 1 = 1.4; nuclear/cytoplasmic p65 ratio, rep 2 = 1.35; low cell count flag = enough cells to score; activity call = inactive
Lpo: p65 translocation robust z-score = 1.61; nuclear/cytoplasmic p65 ratio, rep 1 = 1.94; nuclear/cytoplasmic p65 ratio, rep 2 = 1.81; low cell count flag = enough cells to score; activity call = inactive
Zbtb8b: nuclear/cytoplasmic p65 ratio, rep 1 = 1.33; nuclear/cytoplasmic p65 ratio, rep 2 = 1.08; low cell count flag = fewer than 50 cells per well; well left out of scoring; activity call = inactive
Dynlt2a1: p65 translocation robust z-score = 1.43; nuclear/cytoplasmic p65 ratio, rep 1 = 1.52; nuclear/cytoplasmic p65 ratio, rep 2 = 1.37; low cell count flag = enough cells to score; activity call = inactive
Senp6: p65 translocation robust z-score = 0.34; nuclear/cytoplasmic p65 ratio, rep 1 = 1.32; nuclear/cytoplasmic p65 ratio, rep 2 = 1.3; low cell count flag = enough cells to score; activity call = inactive
Lpcat4: p65 translocation robust z-score = -0.45; nuclear/cytoplasmic p65 ratio, rep 1 = 1.59; nuclear/cytoplasmic p65 ratio, rep 2 = 1.56; low cell count flag = enough cells to score; activity call = inactive
Or6c66: nuclear/cytoplasmic p65 ratio, rep 1 = 1.4; nuclear/cytoplasmic p65 ratio, rep 2 = 1.06; low cell count flag = fewer than 50 cells per well; well left out of scoring; activity call = inactive
Mbip: p65 translocation robust z-score = 0.48; nuclear/cytoplasmic p65 ratio, rep 1 = 1.72; nuclear/cytoplasmic p65 ratio, rep 2 = 1.47; low cell count flag = enough cells to score; activity call = inactive
Eloc: p65 translocation robust z-score = -1.9; nuclear/cytoplasmic p65 ratio, rep 1 = 1.3; nuclear/cytoplasmic p65 ratio, rep 2 = 1.2; low cell count flag = enough cells to score; activity call = active
S100a9: p65 translocation robust z-score = -0.66; nuclear/cytoplasmic p65 ratio, rep 1 = 1.47; nuclear/cytoplasmic p65 ratio, rep 2 = 1.38; low cell count flag = enough cells to score; activity call = inactive
Zfp446: p65 translocation robust z-score = 0.04; nuclear/cytoplasmic p65 ratio, rep 1 = 1.27; nuclear/cytoplasmic p65 ratio, rep 2 = 1.65; low cell count flag = enough cells to score; activity call = inactive
Ehbp1l1: p65 translocation robust z-score = 0.19; nuclear/cytoplasmic p65 ratio, rep 1 = 1.74; nuclear/cytoplasmic p65 ratio, rep 2 = 1.58; low cell count flag = enough cells to score; activity call = inactive
Hsd3b2: p65 translocation robust z-score = 0.14; nuclear/cytoplasmic p65 ratio, rep 1 = 1.6; nuclear/cytoplasmic p65 ratio, rep 2 = 1.42; low cell count flag = enough cells to score; activity call = inactive
Cts3: p65 translocation robust z-score = -0.47; nuclear/cytoplasmic p65 ratio, rep 1 = 1.53; nuclear/cytoplasmic p65 ratio, rep 2 = 1.69; low cell count flag = enough cells to score; activity call = inactive
Scoc: p65 translocation robust z-score = 0.09; nuclear/cytoplasmic p65 ratio, rep 1 = 1.45; nuclear/cytoplasmic p65 ratio, rep 2 = 1.21; low cell count flag = enough cells to score; activity call = inactive
Lamc1: p65 translocation robust z-score = -0.72; nuclear/cytoplasmic p65 ratio, rep 1 = 1.38; nuclear/cytoplasmic p65 ratio, rep 2 = 1.28; low cell count flag = enough cells to score; activity call = inactive
Csnk1g2: p65 translocation robust z-score = 1.27; nuclear/cytoplasmic p65 ratio, rep 1 = 1.8; nuclear/cytoplasmic p65 ratio, rep 2 = 1.61; low cell count flag = enough cells to score; activity call = inactive
Sec61b: p65 translocation robust z-score = -0.2; nuclear/cytoplasmic p65 ratio, rep 1 = 1.36; nuclear/cytoplasmic p65 ratio, rep 2 = 1.24; low cell count flag = enough cells to score; activity call = inactive
Rap2a: p65 translocation robust z-score = 0.23; nuclear/cytoplasmic p65 ratio, rep 1 = 1.61; nuclear/cytoplasmic p65 ratio, rep 2 = 1.68; low cell count flag = enough cells to score; activity call = inactive
Tbc1d9: p65 translocation robust z-score = 0.64; nuclear/cytoplasmic p65 ratio, rep 1 = 1.8; nuclear/cytoplasmic p65 ratio, rep 2 = 1.62; low cell count flag = enough cells to score; activity call = inactive
Trp53inp1: p65 translocation robust z-score = -0.58; nuclear/cytoplasmic p65 ratio, rep 1 = 1.46; nuclear/cytoplasmic p65 ratio, rep 2 = 1.39; low cell count flag = enough cells to score; activity call = inactive
